These are yes or no findings as the source states them, for the method shown. Binding seen in cells or lysates may run through a third protein. Some results given as binding are weak or reduced against the parent protein; the word gives no strength. Blank lines part the entries; values can stand above or below the binder they belong to.
Experiments:
Test in all cases: pull-down; GST pulldown: bacterially expressed, purified GST fusion protein as bait, rat heart lysate as source of PG and PKP2; detection by blot; only the target purified
[1] = biological target: GST-DSG2 ICS C813R fusion protein fragment, bacterially expressed (human) (UniProt Q14126)
[2] = biological target: GST-DSG2 ICS G812C fusion protein fragment, bacterially expressed (human) (UniProt Q14126)
[3] = biological target: GST-DSG2 ICS G812S fusion protein fragment, bacterially expressed (human) (UniProt Q14126)
[4] = biological target: GST-DSG2 ICS wild-type fusion protein fragment, bacterially expressed (amino acids 635-842 of human desmoglein-2) (human) (UniProt Q14126)

Protein sequences, listed by entry. Tags and fused reporters are not part of them. Lines headed by an entry give the natural chain unless they say otherwise; changes in a name come on top. Residues count along the entry.
GST-DSG2 ICS wild-type fusion protein fragment, bacterially expressed (amino acids 635-842 of human desmoglein-2) (Q14126, residues 635-842): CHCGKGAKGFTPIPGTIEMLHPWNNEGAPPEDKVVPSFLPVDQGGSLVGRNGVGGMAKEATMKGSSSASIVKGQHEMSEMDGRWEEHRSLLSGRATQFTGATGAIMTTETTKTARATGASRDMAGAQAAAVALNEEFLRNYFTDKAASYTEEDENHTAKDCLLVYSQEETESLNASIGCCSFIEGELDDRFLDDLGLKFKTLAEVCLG

binding [1]: binds | binding [2]: binds | binding [3]: binds | binding [4]: binds
B1: plakoglobin from rat heart lysate (protein, UniProt Q6P0K8 1-745)
chain: MEVMNLIEQPIKVTEWQQTYTYDSGIHSGVNTCVPSVSSKGLLDEDDTCGRQYTLKKTTTYTQGVPQSQGDLEYQMSTTARAKRVREAMCPGVSGEDSSLLLATQVEGQTTNLQRLAEPSQLLKSAIVHLINYQDDAELATRALPELTKLLNDEDPVVVTKAAMIVNQLSKKEASRRALMGSPQLVAAVVRTMQNTSDLDTARCTTSILHNLSHHREGLLAIFKSGGIPALVRMLSSPVESVLFYAITTLHNLLLYQEGAKMAVRLADGLQKMVPLLNKNNPKFLAITTDCLQLLAYGNQESKLIILANGGPQGLVQIMRNYSYEKLLWTTSRVLKVLSVCPSNKPAIVEAGGMQALGKHLTSNSPRLVQNCLWTLRNLSDVATKQEGLENVLKILVNQLSVDDVNVLTCATGTLSNLTCNNSKNKTLVTQNSGVEALIHAILRAGDKDDITEPAVCALRHLTSRHPEAEMAQNSVRLNYGIPAIVKLLNQPNQWPLVKATIGLIRNLALCPANHAPLQEAAVIPRLVQLLVKAHQDAQRHVAAGTQQPYTDGVRMEEIVEGCTGALHILARDPMNRMEIFRLNTIPLFVQLLYSSVENIQRVAAGVLCELAQDKEAADAIDAEGASAPLMELLHSRNEGTATYAAAVLFRISEDKNPDYRKRVSVELTNSLFKHDPAAWEAAQSMIPINEPYADDMDATYRPMYSSDVPLDPLDMHMDMDGDYPMDTYSDGLRPPYPAADHMLA

binding [1]: binds | binding [2]: binds | binding [3]: binds
B2: plakophilin-2 from rat heart lysate (protein, UniProt F1M7L9 1-814)
chain: MAIPGSLGECGYIRTVLGQQILGHLDSSSLALPSEARLRLAGSSGRGDPVARSQRIQEQVQQTLARRGRSSVVGGNLHRTSSVPEYVYKLHLVENDFVGRQSPAARDYDMLKVGLSGWRDGSTLKVPCTSIKPHREKKTWIEALREGLEHTTDHTDCPAHYVYSHYYFNSKKSNILVFQHIKDKSLQRNAIILLSPEHCTCQHVRLIPSSVLPSLFNQLQLSPELYFSNMGTLYMTSIKGTLCIQLLKGKLPAKHQANFVTMAERRVYTLLLSSTTSSETSFRRTGDTLPSVTSGQSRVHGLHFHHVICDCLSRNADLEMTLERAVNMLDADHVPLSKISAAATFIQHESFQKSEARKRVNQLQGIPKLLQLLKVQNEDVQRAVCGALRNLVFEDNDNKVTVVLGKVNITKREGGGQAAGYMKETWKLANKNPVFLGLLWNLSSSDKLKHLMITEALLTLTESVIIPFSGWPEGDYPKANGLLDFDIFYNVTGCLRNMSSAGPDGRKVMRRCDGLIDSLVHYVRGTIADYQPDDKATENCVCILHNLSYQLEAELPEKYSQSIYMQNRNIQTNSNKSIGCFGSRSRKVKEQYQDTPMPEERSSPRGIEWLWHSIVIRMYLSLIAKSSRNYTQEASLGALQNLTAGSGPIPTSVARMVVQKENGLQHTRKMLHVGDPSVKKTAVSLLRNLSRNLSLQNEIAKETLPDLVSIIPDTVPSTDLLIETTASACYTLNNLMQNSYQNARDLLNTGGLQKIMTISIGEGYAPNKASKAASVLLYSLWAHTELHNAYKKAQFKKTDFVNSRTAKASHSLKD
